The series is classed as physicochemical. As to conditions: 37 °C, mean ± SD, triplicate.

Molecules are shown by their SMILES.

Consider `C(=C\c1ccccc1)/CN1CCN(C(c2ccccc2)c2ccccc2)CC1` [cinnarizine], for which, under “cosolvent”, the “Thermodynamic solubility in Carbitol” value was found to be 54.3 ± 2.76 mg/g. For the same molecule, for the setting “long-chain mono-, di-, triglyceride”, the “Thermodynamic solubility in Maisine 35-1” value is reported as 29.0 ± 0.78 mg/g. Where the note is “medium-chain mono-, di-, triglyceride”, the “Thermodynamic solubility in Capmul MCM EP” value stood at 33.5 ± 1.12 mg/g. In addition, under “surfactant (≤3% w/w water)”, the “Thermodynamic solubility in Cremophor EL” value is 22.7 ± 1.83 mg/g.

Source of the values: article PMC4928820 (Molecular Pharmaceutics, 2015).
